According to patent publication US20240342207, “MODIFIED NUCLEIC ACID COMPOSITIONS AND ASSOCIATED METHODS FOR TREATMENT OF PHENYLKETONURIA” (BOARD OF REGENTS, THE UNIVERSITY OF TEXAS SYSTEM, published 2024):
Positions count from the first letter of the chain named. For part of these data: Negatives hold for the conditions tested. Protein sequences can lack the tags named with them. For part of these data: For at least one entry, the source does not settle the construct or the ends of the probe. For part of these data: At least one result comes from cells or an extract, where the contact may be indirect.

Key:
PAH R408W (Homo sapiens) = target: T1, PAH R408W (Homo sapiens) (UniProt P00439); assay: activity assay; settings: mimic enhances kcat of R408W; purified recombinant protein; protein details: His-tag, E. coli
T1 sequence (looked up): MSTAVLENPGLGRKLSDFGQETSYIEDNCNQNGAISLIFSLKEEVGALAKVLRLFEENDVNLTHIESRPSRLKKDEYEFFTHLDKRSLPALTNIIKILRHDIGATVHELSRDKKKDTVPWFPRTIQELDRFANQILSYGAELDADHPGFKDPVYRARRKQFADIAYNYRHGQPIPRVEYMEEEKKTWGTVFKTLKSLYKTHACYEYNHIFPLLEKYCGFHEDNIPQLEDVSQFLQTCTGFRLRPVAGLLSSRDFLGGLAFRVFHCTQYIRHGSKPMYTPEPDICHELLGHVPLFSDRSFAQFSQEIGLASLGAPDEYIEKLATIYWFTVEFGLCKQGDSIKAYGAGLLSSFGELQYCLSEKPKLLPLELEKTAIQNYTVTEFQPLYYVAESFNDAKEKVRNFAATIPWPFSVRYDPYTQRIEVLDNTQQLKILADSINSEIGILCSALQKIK

[1] = target: T2, PAH TH63-64PN T63P,H64N (Homo sapiens) (UniProt P00439); assay: activity assay; settings: no enhancement of kcat; purified recombinant protein; protein details: His-tag, E. coli
T2 sequence (looked up): T1 sequence (looked up) with T63P, H64N, W408R

[2] = target: T3, PAH (phenylalanine hydroxylase), wild type (Homo sapiens) (UniProt P00439); assay: activity assay; settings: purified recombinant protein
T3 sequence (looked up, limits assumed): T1 sequence (looked up) with W408R

[3] = target: T4, PAH, endogenous mouse liver (Mus musculus) (UniProt P16331); assay: pull-down; settings: biotinylated sense Pair, mouse liver lysate, LC-MS; CLIP maps nt 460-496; protein in an extract
T4 sequence (looked up, limits assumed): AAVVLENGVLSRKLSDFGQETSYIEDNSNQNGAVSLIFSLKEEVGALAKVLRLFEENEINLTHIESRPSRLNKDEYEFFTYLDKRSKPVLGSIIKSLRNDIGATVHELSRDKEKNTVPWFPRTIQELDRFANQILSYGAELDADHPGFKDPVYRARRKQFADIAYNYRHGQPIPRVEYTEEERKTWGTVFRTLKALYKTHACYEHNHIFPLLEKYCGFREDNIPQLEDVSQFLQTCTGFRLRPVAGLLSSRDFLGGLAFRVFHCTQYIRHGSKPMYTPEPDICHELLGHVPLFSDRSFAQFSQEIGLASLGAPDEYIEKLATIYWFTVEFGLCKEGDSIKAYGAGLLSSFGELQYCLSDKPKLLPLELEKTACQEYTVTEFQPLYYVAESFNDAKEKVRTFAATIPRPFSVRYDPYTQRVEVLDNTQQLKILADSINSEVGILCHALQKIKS

[4] = target: T5, PAH, endogenous in Pair-/- mouse hepatocytes (Mus musculus) (UniProt P16331); assay: pull-down; settings: MS2-TRAP and rescue CLIP in Pair-/- hepatocytes; protein in cells
T5 sequence (looked up, limits assumed): T4 sequence (looked up, limits assumed)

[5] = target: T3, PAH (phenylalanine hydroxylase), wild type (Homo sapiens); assay: binding assay; settings: DIG-tagged HULC dot blot; affinity similar to mimic; purified recombinant protein
[6] = target: T6, PAH, endogenous human liver (Homo sapiens) (UniProt P00439); assay: binding assay; settings: CLIP (nt 183-216) and RIP in human liver; protein in an extract
T6 sequence (looked up, limits assumed): T1 sequence (looked up) with W408R

“CAAAAUGCAUAUGUAUCUUUG [HULC 181-201 mimic]” was tested, and the functional effect (PAH R408W (Homo sapiens)) was “active”, the functional effect [1] was “not active” and the functional effect ([2]; mimic increases kcat and Phe to Tyr conversion) was “active”.
“GUGUCAUGCAAGAAGGAGGCGGCGGCGGCGGCCGGAGCUGGAGGGGGAGGAGGGGAGGAACCUGAUCCUCGGUAGCGAAGGGCUGGAGGCAAACACCGAGCUCCCCCUGAGCCGCCUGGGAGCAGGGAGGGUUCUGCUACCCUGAGGGGCCCUCCCCGCGGGGCAGAGGGGUUUCCUCAGCAGUGCCCCGGAGCAGGGACCGCGCCAGCCAGCAGAAACAGCUAGUUGUUGUCUGCAGUGAAGAAUAAUUGGAAGCAUGGUGCCUGUUUCUUUUCCUGUGGGAGGAAGUCACAGCAUCUACUUCUGAAUCUGUGCUUGCCUUGAGGAAAAACGGCAUGGCACAGGAAUGUGGACGCUUUCAACCAGAGGAUUCUGUACGACGGUGUCGGCACACAAGGAGUGUUCCACUGACUGACCUCUUUUUGUUUUCAAAUGAAGAGGAGCCAAGAAUAGGACAGCUUGGGAAGGUGAGCUGCGUAUAGCUCGUCAGGCUGAGCUCAUCCUCGUCUACGGCCAAACGUUGGUUUCUCAUUUCUAGAAGAUGAAAGAUGUGAUGACUCAGGAAAAACUUGCUGCUCGAGAUGUGAGUCUUCAGAUGUUCCUGCCGCCAUAUCUGACAGCUGCUGCCAAGAUUCCCUGGUGGGAUGGACUCUUAUACCUCAACAACCAGAAGCCCAAGUAAACUCUUCUAUAAAUUGAAUGACUCAUGCUUAAAAAAAAAAACAAAAAACAAA [Pair full length (NR_040259.1)]”: binds [3]; binds [4].
“AUGGGGGUGGAACUCAUGAUGGAAUUGGAGCCUUUACAAGGGAAUGAAGAGACAAGAGCUCUCUUUAUGCCACGUGAGGAUACAGCAAGGCCCCAAUCUGCAAGCCAGGAAGAGUCGUCACGAGAACCAGACCAUGCAGGAACUCUGAUCGUGGACAUUUCAACCUCCAGAACUGUGAUCCAAAAUGCAUAUGUAUCUUUGGAAGAAACUCUGAAGUAAAGGCCGGAAUAUUCUUUGUUUAAAACAUUAAAAACAAAACAGACCAAAGCAUCAAGCAAGAAGUUUCCUGGCAAUAAACUAAGCACAGCAUUAUUUUUUAAGGAACACAAAUUAAGUGUUCAACCUGUGGCAAAUUUGUACUUUCUCCCUGAAUUAUGUUGUUAUCAAAGAAAAAAAUUGGGAAGCAUGGCAAAAUAUCAUCAAAACUGAAACUAGAAUUAAACAAAACUAAAUUAAAAUGAAAUAAAAUGAUGUCCAUUCUUAAAAAAAAAAAAAAAAAA [HULC full length (NR_004855.2)]”: binds [5]; binds [6]; binds [4].
For “CAAAAUGCAUGUGUAUCUUUG [HULC 181-201 mutant mimic (A191G)]”, the functional effect ([2]; mutant mimic does not enhance activity, variant of HULC 181-201 mimic) was “not active”.
